Data published in publication PMC10937794.
These are yes or no findings as the source states them, for the method shown. Binding seen in cells or lysates may run through a third protein. Some binding calls cover weakened binding; strength is not graded here.

The chains behind the UniProt entries cited, without tags or fusion partners.
UniProt Q9R0P9: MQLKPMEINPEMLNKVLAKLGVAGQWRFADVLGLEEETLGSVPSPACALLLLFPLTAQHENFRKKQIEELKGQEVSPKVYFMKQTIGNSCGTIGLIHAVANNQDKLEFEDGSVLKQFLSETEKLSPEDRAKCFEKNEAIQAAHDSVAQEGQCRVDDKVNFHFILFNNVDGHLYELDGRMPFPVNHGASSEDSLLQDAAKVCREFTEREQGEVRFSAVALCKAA
UniProt Q61473: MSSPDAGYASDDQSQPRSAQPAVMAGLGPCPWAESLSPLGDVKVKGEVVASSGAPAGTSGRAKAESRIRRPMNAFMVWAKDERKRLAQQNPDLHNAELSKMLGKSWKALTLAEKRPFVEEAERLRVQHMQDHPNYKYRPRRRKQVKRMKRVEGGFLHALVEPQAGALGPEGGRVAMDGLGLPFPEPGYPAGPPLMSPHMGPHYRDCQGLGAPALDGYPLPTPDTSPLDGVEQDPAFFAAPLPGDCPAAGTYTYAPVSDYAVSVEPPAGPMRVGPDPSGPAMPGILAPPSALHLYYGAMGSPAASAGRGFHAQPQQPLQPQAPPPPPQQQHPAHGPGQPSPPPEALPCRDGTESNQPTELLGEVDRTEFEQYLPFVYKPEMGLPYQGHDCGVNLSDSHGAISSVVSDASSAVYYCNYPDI

What was measured:
[1] = target: Ubiquitin C-terminal hydrolase L1 (UCHL1), endogenous in endothelial cells (mouse (endogenous in bEnd.3)) (UniProt Q9R0P9); experiment: co-IP; endogenous proteins in endothelial cell lysates; immunoprecipitation with anti-Sox17, anti-UCHL1 or control IgG and protein A/G plus-agarose at 4 C, immunoblot
[2] = target: Sox17, endogenous in endothelial cells (mouse (endogenous in bEnd.3)) (UniProt Q61473); experiment: as above

binding [1]	binding [2]	Substance
binds	–	Sox17, endogenous in endothelial cells (from UniProt Q61473 1-419)
–	binds	Ubiquitin C-terminal hydrolase L1 (UCHL1), endogenous in endothelial cells (from UniProt Q9R0P9 1-223) (enzyme)
